The labels stand for the following.
B1: RNA-binding protein 47B (protein, UniProt Q0WW84 1-435)
chain: MQTTNGSDSTLATSGATPPNQQTPPPPQQWQQQQQQQQQWMAAMQYPPAAAMMMMQQQQMLMYPHQYVPYNQGPYQQHHPQLHQYGSYQQHQHQQHKAIDRGSGDDVKTLWVGDLLHWMDETYLHSCFSHTGEVSSVKVIRNKLTSQSEGYGFVEFLSRAAAEEVLQNYSGSVMPNSDQPFRINWASFSTGEKRAVENGPDLSVFVGDLSPDVTDVLLHETFSDRYPSVKSAKVVIDSNTGRSKGYGFVRFGDENERSRALTEMNGAYCSNRQMRVGIATPKRAIANQQQHSSQAVILAGGHGSNGSMGYGSQSDGESTNATIFVGGIDPDVIDEDLRQPFSQFGEVVSVKIPVGKGCGFVQFADRKSAEDAIESLNGTVIGKNTVRLSWGRSPNKQWRGDSGQQWNGGYSRGHGYNNGGGYANHHDSNNYHGEN
B2: RNA helicase RH6 (protein, UniProt Q94BV4 1-528)
chain: MNNNNNNRGRFPPGIGAAGPGPDPNFQSRNPNPPQPQQYLQSRTPFPQQPQPQPPQYLQSQSDAQQYVQRGYPQQIQQQQQLQQQQQQQQQQQEQQWSRRAQLPGDPSYIDEVEKTVQSEAISDSNNEDWKATLKLPPRDNRYQTEDVTATKGNEFEDYFLKRDLLRGIYEKGFEKPSPIQEESIPIALTGSDILARAKNGTGKTGAFCIPTLEKIDPENNVIQAVILVPTRELALQTSQVCKELSKYLKIEVMVTTGGTSLRDDIMRLYQPVHLLVGTPGRILDLAKKGVCVLKDCAMLVMDEADKLLSVEFQPSIEELIQFLPESRQILMFSATFPVTVKSFKDRYLKKPYIINLMDQLTLMGVTQYYAFVEERQKVHCLNTLFSKLQINQSIIFCNSVNRVELLAKKITELGYSCFYIHAKMVQDHRNRVFHDFRNGACRNLVCTDLFTRGIDIQAVNVVINFDFPRTSESYLHRVGRSGRFGHLGLAVNLVTYEDRFKMYQTEQELGTEIKPIPSLIDKAIYCQ
B3: RNA helicase RH8 (protein, UniProt Q8RXK6 1-505)
chain: MNNRGRYPPGIGAGRGAFNPNPNYQSRSGYQQHPPPQYVQRGNYAQNHQQQFQQAPSQPHQYQQQQQQQQQWLRRGQIPGGNSNGDAVVEVEKTVQSEVIDPNSEDWKARLKLPAPDTRYRTEDVTATKGNEFEDYFLKRELLMGIYEKGFERPSPIQEESIPIALTGRDILARAKNGTGKTAAFCIPVLEKIDQDNNVIQAVIIVPTRELALQTSQVCKELGKHLKIQVMVTTGGTSLKDDIMRLYQPVHLLVGTPGRILDLTKKGVCVLKDCSVLVMDEADKLLSQEFQPSVEHLISFLPESRQILMFSATFPVTVKDFKDRFLTNPYVINLMDELTLKGITQFYAFVEERQKIHCLNTLFSKLQINQSIIFCNSVNRVELLAKKITELGYSCFYIHAKMLQDHRNRVFHDFRNGACRNLVCTDLFTRGIDIQAVNVVINFDFPKNAETYLHRVGRSGRFGHLGLAVNLITYEDRFNLYRIEQELGTEIKQIPPHIDQAIYCQ
B4: RNA-binding protein 47C (protein, UniProt Q9SX79 1-432)
chain: MADVKIQSESESSDSHPVVDNQPPPPPPPPQQPAKEEENQPKTSPTPPPHWMRYPPTVIIPHQMMYAPPPFPPYHQYPNHHHLHHQSRGNKHQNAFNGENKTIWVGDLHHWMDEAYLNSSFASGDEREIVSVKVIRNKNNGLSEGYGFVEFESHDVADKVLREFNGTTMPNTDQPFRLNWASFSTGEKRLENNGPDLSIFVGDLSPDVSDNLLHETFSEKYPSVKAAKVVLDANTGRSKGYGFVRFGDENERTKAMTEMNGVKCSSRAMRIGPATPRKTNGYQQQGGYMPNGTLTRPEGDIMNTTIFVGGLDSSVTDEDLKQPFNEFGEIVSVKIPVGKGCGFVQFVNRPNAEEALEKLNGTVIGKQTVRLSWGRNPANKQPRDKYGNQWVDPYYGGQFYNGYGYMVPQPDPRMYPAAPYYPMYGGHQQQVS
B5: RNA-binding protein 47A (protein, UniProt F4I3B3 1-445)
chain: MQTPNNNGSTDSVLPPTSAGTTPPPPLQQSTPPPQQQQQQQWQQQQQWMAAMQQYPAAAMAMMQQQQMMMYPHPQYAPYNQAAYQQHPQFQYAAYQQQQQQHHQSQQQPRGGSGGDDVKTLWVGDLLHWMDETYLHTCFSHTNEVSSVKVIRNKQTCQSEGYGFVEFLSRSAAEEALQSFSGVTMPNAEQPFRLNWASFSTGEKRASENGPDLSIFVGDLAPDVSDAVLLETFAGRYPSVKGAKVVIDSNTGRSKGYGFVRFGDENERSRAMTEMNGAFCSSRQMRVGIATPKRAAAYGQQNGSQALTLAGGHGGNGSMSDGESNNSTIFVGGLDADVTEEDLMQPFSDFGEVVSVKIPVGKGCGFVQFANRQSAEEAIGNLNGTVIGKNTVRLSWGRSPNKQWRSDSGNQWNGGYSRGQGYNNGYANQDSNMYATAAAAVPGAS
B6: AGO5 (protein, UniProt Q9SJK3 1-997)
chain: MSNRGGGGHGGASRGRGGGRRSDQRQDQSSGQVAWPGLQQSYGGRGGSVSAGRGRGNVGRGENTGDLTATQVPVASAVSGGRGRGNIGDPTFSVASSSKTVSVASSSKEESKNTEVSETMSNLQITSTETKPEMTSLPPASSKAVTFPVRPGRGTLGKKVMVRANHFLVQVADRDLYHYDVSINPEVISKTVNRNVMKLLVKNYKDSHLGGKSPAYDGRKSLYTAGPLPFDSKEFVVNLAEKRADGSSGKDRPFKVAVKNVTSTDLYQLQQFLDRKQREAPYDTIQVLDVVLRDKPSNDYVSVGRSFFHTSLGKDARDGRGELGDGIEYWRGYFQSLRLTQMGLSLNIDVSARSFYEPIVVTDFISKFLNIRDLNRPLRDSDRLKVKKVLRTLKVKLLHWNGTKSAKISGISSLPIRELRFTLEDKSEKTVVQYFAEKYNYRVKYQALPAIQTGSDTRPVYLPMELCQIDEGQRYTKRLNEKQVTALLKATCQRPPDRENSIKNLVVKNNYNDDLSKEFGMSVTTQLASIEARVLPPPMLKYHDSGKEKMVNPRLGQWNMIDKKMVNGAKVTSWTCVSFSTRIDRGLPQEFCKQLIGMCVSKGMEFKPQPAIPFISCPPEHIEEALLDIHKRAPGLQLLIVILPDVTGSYGKIKRICETELGIVSQCCQPRQVNKLNKQYMENVALKINVKTGGRNTVLNDAIRRNIPLITDRPTIIMGADVTHPQPGEDSSPSIAAVVASMDWPEINKYRGLVSAQAHREEIIQDLYKLVQDPQRGLVHSGLIREHFIAFRRATGQIPQRIIFYRDGVSEGQFSQVLLHEMTAIRKACNSLQENYVPRVTFVIVQKRHHTRLFPEQHGNRDMTDKSGNIQPGTVVDTKICHPNEFDFYLNSHAGIQGTSRPAHYHVLLDENGFTADQLQMLTNNLCYTYARCTKSVSIVPPAYYAHLAAFRARYYMESEMSDGGSSRSRSSTTGVGQVISQLPAIKDNVKEVMFYC
B7: RNA helicase RH53 (protein, UniProt Q9LUW5 82-616)
chain: GFAISESSERRVGDSESVGGDGLAISELGISPEIVKALSSKGIEKLFPIQKAVLEPAMEGRDMIGRARTGTGKTLAFGIPIIDKIIKYNAKHGRGRNPLCLVLAPTRELARQVEKEFRESAPSLDTICLYGGTPIGQQMRQLDYGVDVAVGTPGRVIDLMKRGALNLSEVQFVVLDEADQMLQVGFAEDVEIILEKLPEKRQSMMFSATMPSWIRSLTKKYLNNPLTVDLVGDSDQKLADGITTYSIIADSYGRASIIGPLVTEHAKGGKCIVFTQTKRDADRLSYALARSFKCEALHGDISQSQRERTLAGFRDGHFNILVATDVAARGLDVPNVDLIIHYELPNNTETFVHRTGRTGRAGKKGSAILIYSQDQSRAVKIIEREVGSRFTELPSIAVERGSASMFEGIGSRSGGSFGGGMRDRGSSFGGRSGGGGYGGSSGGYGGGRSGGSSNRYSGDSDRSGFGSFGMRSPEGYGSDRSSQSGGRSSFGGGRSGGSSNNRSSGFGDFGSDRSSQSGGRSSFGGFGSNDGKRSY

Results are given in words; binding and its absence hold for the method and conditions named. Binding seen in cells or lysates may run through a third protein. These calls come from enrichment with a bait or labelling near it, and not all partners need be listed. Sequences can lack the tags named with a protein.

The test has as its target T1, GFP-AGO1 (ARGONAUTE1 fused to GFP, line pAGO1:GFP-AGO1 ago1-27) (Arabidopsis thaliana) (UniProt O04379).
T1 sequence: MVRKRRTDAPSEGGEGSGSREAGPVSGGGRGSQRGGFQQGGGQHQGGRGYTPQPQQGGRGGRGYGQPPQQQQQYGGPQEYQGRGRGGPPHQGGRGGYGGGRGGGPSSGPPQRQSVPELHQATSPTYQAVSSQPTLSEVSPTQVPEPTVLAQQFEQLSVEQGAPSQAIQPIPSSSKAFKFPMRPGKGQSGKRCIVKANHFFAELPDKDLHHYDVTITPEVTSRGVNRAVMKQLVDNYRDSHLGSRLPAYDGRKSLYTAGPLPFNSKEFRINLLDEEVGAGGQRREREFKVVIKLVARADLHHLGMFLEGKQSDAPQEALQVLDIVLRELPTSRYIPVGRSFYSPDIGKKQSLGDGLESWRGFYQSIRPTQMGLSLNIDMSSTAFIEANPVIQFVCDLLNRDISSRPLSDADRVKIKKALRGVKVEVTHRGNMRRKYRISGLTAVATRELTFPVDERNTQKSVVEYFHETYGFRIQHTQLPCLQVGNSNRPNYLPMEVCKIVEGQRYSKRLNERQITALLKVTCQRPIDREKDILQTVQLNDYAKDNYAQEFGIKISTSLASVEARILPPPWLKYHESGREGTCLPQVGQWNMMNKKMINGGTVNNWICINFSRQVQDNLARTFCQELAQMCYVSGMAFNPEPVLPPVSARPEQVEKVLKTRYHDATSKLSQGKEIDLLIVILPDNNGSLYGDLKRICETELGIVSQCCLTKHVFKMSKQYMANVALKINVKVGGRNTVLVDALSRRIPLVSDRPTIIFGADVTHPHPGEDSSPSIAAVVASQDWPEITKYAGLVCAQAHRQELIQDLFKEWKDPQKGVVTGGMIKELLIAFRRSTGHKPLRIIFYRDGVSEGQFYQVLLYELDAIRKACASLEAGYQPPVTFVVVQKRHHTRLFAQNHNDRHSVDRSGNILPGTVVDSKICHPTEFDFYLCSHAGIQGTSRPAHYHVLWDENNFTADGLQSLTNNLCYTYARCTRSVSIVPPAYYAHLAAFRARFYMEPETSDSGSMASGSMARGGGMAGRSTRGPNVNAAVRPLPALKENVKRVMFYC
The experiment in a line: affinity purification with mass spectrometry.
As to B1, the binding result is on record as “binds”. As for B2, the entry is “binds”; as for B3, “binds”; as for B4, “binds”. With B5 the entry was “binds”. With B6 the entry was “binds”; with B7, “binds”.

(Values after article doi:10.1101/2023.10.12.562039.)
